Experimental data as given in PubChem BioAssay AID651664 (NMMLSC, 2012).
Among all 1,800 compounds or so, fewer than 10 were called active.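 The calls were made as follows: active = inhibition of granule release above a set limit; inactive = the rest.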 This is one part of the list.

test: inhibitors of lytic granule exocytosis, flow cytometry, TALL-104 cells, validation set (AID 651664); conditions: TALL-104 LAMP-1 externalization, at 15.2 µM, hits give high values, stimulated with thapsigargin and PMA

inhibition, inactive:
Cc1sc2ncnc(OCC(=O)Nc3ccc4c(c3)OCCO4)c2c1C -3.2%
O=C(NCc1ccccn1)C1CCN(S(=O)(=O)c2ccccc2)CC1 -2.7%
O=C(Nc1ccc(N2CCN(C(=O)c3ccco3)CC2)c(Cl)c1)c1cc2ccccc2o1 3.3%
Cc1cccnc1NC(=O)Nc1ccc(F)cc1 -5.6%
Oc1ccc(Br)cc1-c1cc(-c2ccc(Cl)cc2)n[nH]1 0.6%
CC1=NN(c2nc(-c3ccc(C)cc3)cs2)C(=O)C1N=Nc1ccc2ccccc2c1 (stereo not drawn) -1.8%
C=CCn1c(NCCc2ccccc2)nc2c1c(=O)n(C)c(=O)n2C -4.1%
COC(=O)c1sc(NC(=O)COc2ccc(OC)cc2)nc1C 13.2%
CCC(=O)Nc1cccc(C(=O)/C=C/c2ccccc2)c1 -0.3%
O=C(O)C1C2C=CC3(CN(CC(O)COc4ccccc4)C(=O)C13)O2 (stereo not drawn) -2.6%
Cc1cc(S(=O)(=O)N2CC(=O)N(CCc3ccccc3)C(=O)C2)ccc1F -1.5%
S=c1[nH]nc(-c2ccccc2Cl)n1CC1CCCO1 (stereo not drawn) -1.9%
Cc1ccccc1-n1c(C)cc(/C=N/Nc2ccc([N+](=O)[O-])cn2)c1C -1.3%
CCOC(=O)C1=C(CNCc2ccccc2Cl)NC(=O)NC1c1ccc2c(c1)OCO2 (stereo not drawn) -3.4%
NC(=O)N1OCC2COc3ccc4ccccc4c3C21 (stereo not drawn) 4.4%
Nc1c(C(=O)NCC2CCCO2)sc(=S)n1-c1ccccc1 (stereo not drawn) 0.7%
CC(C)[C@H](NC(=O)NCCc1ccccc1)C(=O)O -2.6%
CCN1CCCC1CNC(=O)Cn1cccc1C(=O)c1ccccc1 (stereo not drawn) 0.5%
COCCCNC(=O)C1CCC(=O)N1Cc1ccccc1Cl (stereo not drawn) 0.7%
CCOC(=O)C1=C(C)N=c2s/c(=C\C(=O)OC)c(=O)n2C1c1ccc(OC)cc1 (stereo not drawn) -0.8%
C/C(=N/OC(=O)c1ccc(F)cc1)c1ccc(C)cc1 0.7%
COC(=O)CN1C(=O)C(O)(CC(=O)c2ccc(C)o2)c2ccccc21 (stereo not drawn) -1.9%
COC(=O)c1ccc(/C=C/C(=O)c2ccc(OC)c(OC)c2)cc1 8.4%
CCOc1cc(/C=C(/C#N)C(=O)Nc2ccc(O)cc2)cc(Br)c1O 0.7%
Cc1ccccc1-n1ccnc1SCC(=O)O -0.9%
FC(F)(F)c1cnc2c(-c3ccc(Cl)cc3Cl)noc2c1 -2.4%
Cc1ccc(S(=O)(=O)N2CCCC(C(=O)NCCc3ccc4c(c3)OCO4)C2)cc1 (stereo not drawn) -2.7%
CCOc1ccccc1N1CCN(C2=C(NS(=O)(=O)c3cccs3)C(=O)c3ccccc3C2=O)CC1 1.5%
COC(=O)c1cc(Cl)c(NC(=O)c2cc3ccccc3o2)cc1OC 5.1%
CCn1c(O)c(N=NC2=NC(=O)CS2)c2cc(C)ccc21 -4.5%
CN(C(=O)c1ccc(C#N)cc1)c1nnc(-c2ccccn2)s1 0.9%
Cn1c(=O)n(CC(=O)N2CCOCC2)c2ccccc21 0.4%
COC(=O)c1cc(OC)c(OC)cc1NC(=O)c1ccc(Br)o1 -1.6%
Cc1cnc(NC(=O)c2ccc3c(c2)C(=O)N(Cc2ccco2)C3=O)s1 -1.3%
Cn1c(=O)n(C)c2cc(S(=O)(=O)O)ccc21 4.8%
CCC1(C)Nc2ccccc2C(=O)N1O (stereo not drawn) -0.7%
CCC1CCCCN1C(=O)c1c(-c2ccccc2)noc1C (stereo not drawn) -2%
CC(C)(C)C(=O)Nc1cccc(-c2nnc(-c3cccc(NC(=O)C(C)(C)C)c3)o2)c1 -2.4%
Fc1ccc(C2=Nn3c(Cc4ccccc4F)nnc3SC2)cc1 1.3%
CC(=O)/C(C[N+]1(C)CCCCC1)=N\O -0.4%
O=C(Nc1nc(-c2ccc(-c3ccccc3)cc2)cs1)C1CCCO1 (stereo not drawn) 13.3%
COc1ccc(C(C#N)N2CCOCC2)cc1 (stereo not drawn) -1%
CC(C)C(=O)NCCc1nc2ccccc2n1CCCOc1ccc(Cl)cc1 -1.9%
COc1ccc(NC(=O)c2cc(OC)c(OC)cc2OC)c(S(=O)(=O)N2CCOCC2)c1 2.5%
CC(C)OC(=O)/C(=C\C=C\c1ccccc1)NC(=O)c1ccccc1 -2.1%
COc1nc(OCC#N)nc(N(C)C)n1 -0.4%
CCCCCOP(=O)(OCCCCC)C1(NS(=O)(=O)c2ccccc2)C=CC(=O)c2ccccc21 (stereo not drawn) 0.5%
O=C(OCCN1CCCC1)C1(c2ccccc2)CCCC1 -0.9%
O=S(=O)(Nc1cccnc1)c1ccc2c(c1)OCCO2 -1.3%
COc1cccc(CN(Cc2ccco2)C(c2ccc(F)cc2)c2nnnn2C(C)(C)C)c1 (stereo not drawn) -0.3%
O=C(CSc1ncnc2c1cnn2Cc1ccccc1)Nc1ccc2c(c1)OCCO2 0.3%
CCCOC(=O)c1ccc(NC(=O)c2ccoc2C)cc1 0.7%
Cc1csc(N(C(=O)c2cccc(S(=O)(=O)N3CCCC3)c2)c2ccccc2)n1 -1.8%
COc1cc(C2C(C#N)=C(C)NC3=C2C(=O)CC(C)(C)C3)ccc1O (stereo not drawn) 0.1%
O=C1c2ccccc2C(=O)N1c1ccccc1S(=O)C(F)(F)F (stereo not drawn) 6.2%
COc1ccc(-c2cn[nH]c2N)cc1OC 2.5%
O=C(CSc1nnc(-c2ccc(F)cc2)o1)Nc1ccccc1N1CCOCC1 0.9%
COc1ccc(Cn2nnc3c(=O)[nH]c(C4CCN(C(=O)c5ccccc5Cl)CC4)nc32)cc1 -2.7%
COc1ccc(N=C2S/C(=C\c3ccc(C)s3)C(=O)N2CC(C)C)cc1 -0.3%
COc1cc(NS(=O)(=O)c2ccc(N/C=C(\C=O)c3nc4cc(Cl)ccc4o3)cc2)nc(OC)n1 0%
COc1cccc(CN2CCN(C(=O)c3ccco3)CC2)c1OC 1.1%
Cc1cccn2c(=O)c3cc(C(=O)NCCc4ccccc4)c(=N)n(CCCn4ccnc4)c3nc12 -2.9%
CCn1c(SCC(=O)NCC2CCCO2)nnc1-c1c[nH]c2ccccc12 (stereo not drawn) 1.5%
CC(C)CCn1c(S(=O)(=O)O)nc2ccccc21 -1.2%
COc1cc(CNCCN2CCOCC2)ccc1OCc1ccccc1Cl 1.8%
O=C(NCc1ccco1)c1c(O)c2cccc3c2n(c1=O)CCC3 2.6%
CCS(=O)(=O)N1CCCC(C(=O)NCCCOC(C)C)C1 (stereo not drawn) -2.3%
CN1CCN(C(=O)c2cc3c(C(F)(F)F)nn(C)c3s2)CC1 0.4%
CCCSc1nc2c(c(=O)n(C)c(=O)n2C)n1Cc1ccc(C)cc1 17.5%
CS(=O)(=O)N(Cc1ccc(C(=O)Nc2ccccc2Sc2ccccc2)cc1)c1ccccc1 -1.7%
COC(=O)c1ccc(CSc2nc3ccccc3c(=O)n2-c2ccccc2)o1 -0.9%
Cc1cc(C)c2nc(NC(=O)C3CCCO3)sc2c1 (stereo not drawn) 4.1%
C=CCn1c(NCc2c[nH]c3ccccc23)nc2ccccc21 3.9%
CCOc1cccc(CNc2ccc(O)cc2)c1OCc1ccccc1Cl -1.8%
COC(=O)c1ccccc1NC(=O)c1ccc(COc2ccc(C)c(C)c2)o1 -0.1%
CCCOc1ccc(Cn2c(O)cc(=O)[nH]c2=O)cc1 -1.6%
CCNC(=O)CSc1nnc(C2CC2)n1-c1ccccc1 -0.7%
Cc1cc(C(=O)Nc2ccccc2)oc1C -4.2%
CC(C)COCC1CC2(CC(C)(c3csc(N)n3)OC2=O)C(=O)O1 (stereo not drawn) -0.5%
CC(/C=N/NC(=O)Cc1cc(=O)[nH][nH]1)=C\c1ccccc1 -0.5%
Cc1nc(SC2CCOC2=O)c2c(C)c(C)sc2n1 (stereo not drawn) -4.2%
Cc1cc(C)n2nc(-c3ccc(F)cc3)nc2n1 2.6%
CNC(=O)c1sccc1SCc1c(Cl)cccc1Cl -3.3%
CCOc1ccc(OCC(=O)Nc2ccc(S(=O)(=O)Nc3cc(C)nc(C)n3)cc2)cc1 -0.7%
CC(=O)c1c(C)nn(C(=O)N2CCOCC2)c1C 3.9%
Cc1occc1C(=O)NC(C)CCc1ccccc1 (stereo not drawn) 6.4%
N#Cc1nc(-c2ccc(OCc3ccccc3)cc2)oc1NCCCN1CCOCC1 -1.9%
O=C(CCSc1nc(-c2ccco2)cc(C(F)(F)F)n1)NCCc1ccccc1 3.2%
CSc1ccc(Cl)c(C(=O)OCC(=O)N2CCOCC2)c1 -5.5%
Cc1csc(SCCn2c(N3CCCC3)nc3c2c(=O)[nH]c(=O)n3C)n1 -5.9%
O=C(O)CSC1c2ccccc2C(=O)N1Cc1ccccc1 (stereo not drawn) -2.3%
COc1ccc2c(c1OC)C(=O)N1N=C(c3ccc(O)cc3)CC21 (stereo not drawn) -0.9%
O=C(Cn1cnc2ccccc2c1=O)N1CCN(Cc2ccc3c(c2)OCO3)CC1 -0.4%
COc1ccc2c(c1OC)C(=O)N1c3ccccc3SC21 (stereo not drawn) -0.7%
Cc1cc(=O)[nH]c(SCc2nnc(-c3ccccc3)o2)n1 26.2%
Cc1ccccc1C(=O)NC(=S)Nc1ccc(Oc2ccc(Cl)cc2)cc1 0.6%
COc1ccc(C(=O)Nc2nnc(-c3cccs3)s2)cc1 4.6%
O=C(Nc1nccs1)c1cccc(N2C(=O)c3cccc4c([N+](=O)[O-])ccc(c34)C2=O)c1 2.3%

Four structures already listed, ordered by heavy-atom count, low to high:
inhibition, inactive:
Cc1cc(C)n2nc(-c3ccc(F)cc3)nc2n1 2.6%
CCCOc1ccc(Cn2c(O)cc(=O)[nH]c2=O)cc1 -1.6%
CCC1CCCCN1C(=O)c1c(-c2ccccc2)noc1C (stereo not drawn) -2%
COc1ccc(NC(=O)c2cc(OC)c(OC)cc2OC)c(S(=O)(=O)N2CCOCC2)c1 2.5%
